Source: PubChem BioAssay AID504467 (National Center for Advancing Translational Sciences (NCATS), 2011)
The whole screen tested about 330,000 compounds, of which about 7,700 (2.3%) were called active. Inconclusive results, whose numbers are uncertain, are shown with a selection of clear calls. The call rests on the fitted dose curve; in most records, active means well fitted inhibition curve with a large enough effect; inconclusive means small, poorly fitted or top-dose-only effect, or effect the other way; inactive means flat fitted curve, though single readings scatter. Potencies of inconclusive entries are doubtful fits and often do not repeat.

Assay: qHTS screen for small molecules that inhibit ELG1-dependent DNA repair in human embryonic kidney (HEK293T) cells expressing luciferase-tagged ELG1; further: nearly all actives have a fitted effect of over 55% in size
Conditions: HEK293T ELG1-luciferase reporter, luminescence, 16 h, DNA damage induced by 5-fluorouridine; series mostly up to 46.1 µM
Method in brief: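 Overnight (16 hr) co-exposure of 2,000 cells/well to 5-fluorouridine and compound at 37 °C preceded detection. Luciferase was quantified via ONE-Glo luminescence; loss of signal denotes inhibition.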
Potency means the concentration at half of the fitted maximal effect.

Q: For CC(C)(C)C(=O)NC(=S)NNC(=O)c1sc2ccccc2c1Cl, which Potency is on record?
A: inconclusive: 4.11 µM [inhibitor, partial curve, poor fit]

Q: For Cc1cc(C)cc(SCc2noc(C(=O)NC(C)C)c2C(=O)NC(C)C)c1, which Potency is on record?
A: inconclusive: 0.103 µM [activator, partial curve, poor fit]

Q: With O=c1cc(CO)oc(C(Nc2ccccn2)c2ccc(C(F)(F)F)cc2)c1O (stereo unspecified) as the compound, how does the Potency read?
A: inactive

Q: For CN(c1ccc(C(=O)N/N=C/c2cccc([N+](=O)[O-])c2)cc1)S(=O)(=O)c1ccccc1, which Potency is on record?
A: inconclusive: 23.1 µM [inhibitor, single point]

Q: For Cc1nn(S(=O)(=O)c2cccs2)c(C)c1Sc1ccc([N+](=O)[O-])cc1, which Potency is on record?
A: inactive

Q: For Cc1csc2c(=O)sc(NC(=O)c3ccc(F)cc3)nc12, which Potency is on record?
A: inactive

Q: With O=C(N=C1SC2CS(=O)(=O)CC2N1c1ccccc1)C1CCCCC1 (stereo unspecified) as the compound, how does the Potency read?
A: inconclusive: 20.6 µM [activator, single point]

Q: With COCCNC(=O)/C(C#N)=C/c1ccc(OC(=O)c2cccs2)c(OC)c1 as the compound, how does the Potency read?
A: inconclusive: 23.1 µM [activator, partial curve]

Q: For Cn1nccc1C(=O)Nc1ccc(OC(=O)c2ccnn2C)cc1, which Potency is on record?
A: active: 23.1 µM

Q: Which Potency does the source give for CN(C)CCCN(C(=O)c1ccco1)c1nc2c(F)cccc2s1 here?
A: inconclusive: 8.2 µM [activator, partial curve, poor fit]

Q: For Cc1ccc(NC(=O)c2cnccn2)cc1, which Potency is on record?
A: inconclusive: 14.6 µM [activator, partial curve]

Q: For CCOc1cc(NC(=O)c2ccccn2)c(OCC)cc1NC(=O)c1ccc(C)cc1, which Potency is on record?
A: inactive

Q: Which Potency does the source give for Cc1ccc(CNC(=O)Cc2ccc(NC3=NC4CS(=O)(=O)CC4S3)cc2)cc1 (stereo unspecified) here?
A: inconclusive: 32.6 µM [activator, single point]

Q: Which Potency does the source give for CC(=Nc1ccc(C)cc1)c1sc2ccccc2c1O here?
A: inconclusive: 1.46 µM [activator, partial curve]

Q: With Cc1ccn(CC(=O)N2CCCC(N3CCN(c4cccc(Cl)c4)CC3)C2)n1 (stereo unspecified) as the compound, how does the Potency read?
A: inactive

Q: Which Potency does the source give for CCOC(=O)c1c(C)nc(C)c(C(=O)OCC)c1-c1cccc(N)c1 here?
A: inactive

Q: Which Potency does the source give for Cc1ccc(C(=O)CC(=O)COc2ccc(Cl)cc2)cc1 here?
A: inconclusive: 20.6 µM [activator, single point]

Q: For COc1cc(C(=O)NCCCN(C)C)ccc1OCC(=O)Nc1cccc(C(F)(F)F)c1, which Potency is on record?
A: inactive

Q: With COc1ccc(-c2cc(-c3ccc(N)cc3)nc(N)c2C#N)cc1OC as the compound, how does the Potency read?
A: inconclusive: 29.1 µM [inhibitor, single point]

Q: With O=C1C=C(c2ccccc2C(F)(F)F)C[C@@H](c2ccc3c(c2)OCO3)C1 as the compound, how does the Potency read?
A: inconclusive: 20.6 µM [inhibitor, single point]

Q: Which Potency does the source give for CCn1nc(NS(=O)(=O)c2ccccc2[N+](=O)[O-])c2cc3ccc(C)cc3nc21 here?
A: inconclusive: 20.6 µM [activator, partial curve, poor fit]

Q: For COc1ccc(C(=O)Oc2ccc3c(c2)OCO3)cc1OC, which Potency is on record?
A: inconclusive: 12.6 µM [activator, single point]

Q: Which Potency does the source give for C=CCNC(=S)N/N=C(\C)c1cc(OC)c(OC)c(OC)c1 here?
A: inactive

Q: For O=c1[nH]c2ccccc2c(O)c1-[n+]1ccccc1, which Potency is on record?
A: inactive

Q: For COc1ccc(NC(=O)c2ccc(F)cc2)cc1S(=O)(=O)Nc1cc(C)ccc1Br, which Potency is on record?
A: inconclusive: 25.9 µM [inhibitor, single point]

Q: For CC(C)Cn1c(-c2ccc(F)cc2)n[nH]c1=S, which Potency is on record?
A: inactive

Q: For Clc1ccc(Cn2ncc3c(N4CCCC4)ncnc32)cc1, which Potency is on record?
A: inconclusive: 23.1 µM [inhibitor, single point]

Q: For Cc1cccc2cc3c(N)c(C(=O)Nc4ccc(N5CCOCC5)cc4)sc3nc12, which Potency is on record?
A: inconclusive: 18.4 µM [inhibitor, single point]

Q: With O=[N+]([O-])c1ccc(NCc2ccccn2)nc1 as the compound, how does the Potency read?
A: inconclusive: 16.4 µM [activator, single point]

Q: Which Potency does the source give for CCOC(=O)N1CCC(NC(=O)c2cc3c(-c4cccc(OC)c4)nn(C)c3s2)CC1 here?
A: inconclusive: 25.9 µM [inhibitor, single point]

Q: Which Potency does the source give for O=C(NCc1ccccn1)c1cc(-c2ccccc2Cl)on1 here?
A: inconclusive: 11.2 µM [activator, partial curve]

Q: With Cc1occc1C(=O)N1CCCC(N2CCN(c3cccc(Cl)c3)CC2)C1 (stereo unspecified) as the compound, how does the Potency read?
A: inconclusive: 0.92 µM [inhibitor, partial curve, poor fit]

Q: For CSc1nc2ccc(NC(=O)c3cc4ccccc4o3)cc2s1, which Potency is on record?
A: inconclusive: 3.26 µM [activator, full curve]

Q: With CC(C)(C)c1ccc(C(=O)NCCOc2ccccc2)cc1 as the compound, how does the Potency read?
A: inconclusive: 0.82 µM [activator, full curve]

Q: For CCOc1ccc(NC(=S)N(CCc2c(C)[nH]c3ccc(C)cc23)Cc2ccncc2)cc1, which Potency is on record?
A: inconclusive: 29.1 µM [inhibitor, single point]

Q: Which Potency does the source give for CCOC(=O)C1CCCN(C(=O)Cc2c(C(=O)O)[nH]c3ccccc23)C1 (stereo unspecified) here?
A: inactive

Q: For Cc1c(CC(=O)N2CCN(C(=O)C3COc4ccccc4O3)CC2)c(=O)oc2cc(O)c(Cl)cc12 (stereo unspecified), which Potency is on record?
A: inconclusive: 2.31 µM [inhibitor, full curve]

Q: With CCOc1ccc(CCNC(=O)c2sc3nc4n(c(=O)c3c2C)CCC4)cc1OCC as the compound, how does the Potency read?
A: active: 6.51 µM

Q: With CN(C)CCn1c(C(=O)O)cc2ccccc21 as the compound, how does the Potency read?
A: inactive

Q: For CCC(=O)Nc1ccc(-c2nnc(SCc3ccc(C(=O)Nc4nccs4)cc3)n2CC)cc1, which Potency is on record?
A: inconclusive: 35.5 µM [inhibitor, single point]

Q: For COc1cc(OC)cc(C2=NC3(CCC(C)CC3)NC2=S)c1 (stereo unspecified), which Potency is on record?
A: inconclusive: 20.6 µM [inhibitor, single point]

Q: For Cc1ccc(CC(=O)N(C)CC(=O)Nc2ccc(N3CCOCC3)cc2)cc1C, which Potency is on record?
A: inconclusive: 8.2 µM [activator, partial curve, poor fit]

Q: For CCC(CC)C1=NN2C(=N)/C(=C\c3cc(C)n(-c4cccc(C)c4)c3C)C(=O)N=C2S1, which Potency is on record?
A: inactive

Q: Which Potency does the source give for CCc1ccc(OCC(=O)NC(=S)Nc2ccc(C(=O)O)cc2)cc1 here?
A: inactive

Q: For Cc1nc2ccc(C(=O)N/N=C/c3ccccc3O)cc2[nH]1, which Potency is on record?
A: inconclusive: 29.1 µM [activator, single point]

Q: Which Potency does the source give for COc1cc(O)sc1C=Nc1ccc(Cl)cc1 here?
A: inconclusive: 18.3 µM [activator, partial curve]

Q: For CN1C(=O)/C(=C/c2ccc(OCc3cccc(F)c3)cc2)NC1=S, which Potency is on record?
A: inactive

Q: For CCOc1ccc(S(=O)(=O)N(C)c2ccc(OCC(=O)N3CCOCC3)cc2)cc1, which Potency is on record?
A: inactive

Q: Which Potency does the source give for COc1ccc(-c2ccc(-c3noc(-c4ccccc4)n3)c(OC)n2)cc1 here?
A: inconclusive: 20.6 µM [activator, partial curve, poor fit]

Q: With Cc1cc(C)cc(N2CC(O)=C(c3nc4ccccc4c(=O)[nH]3)C2=N)c1 as the compound, how does the Potency read?
A: inactive

Q: For Cc1cc(OC(C)C(=O)NCCCn2ccnc2)c2c(C)c(C)c(=O)oc2c1 (stereo unspecified), which Potency is on record?
A: inconclusive: 20.6 µM [activator, single point]

Q: Which Potency does the source give for O=C(Cn1c2ccc(F)cc2c2nc3n(c(=O)c21)CCS3)Nc1ccccc1F here?
A: inconclusive: 29.1 µM [inhibitor, single point]

Q: For Cc1nn(-c2ccccc2)c2nc(C(F)F)cc(C(F)F)c12, which Potency is on record?
A: inconclusive: 29.1 µM [activator, single point]

Q: For CC(=O)Cn1nnc2sc3c(c2c1=O)CCC(C(C)(C)C)C3 (stereo unspecified), which Potency is on record?
A: inconclusive: 16.4 µM [activator, partial curve]

Q: With COc1cc(N(C(=O)Cc2cccs2)C(C(=O)NC2CCCCC2)c2ccc(C)cc2)ccc1-n1cnnn1 (stereo unspecified) as the compound, how does the Potency read?
A: inactive

Q: For N=c1c(C(=O)NC2CCCCC2)cc2c(=O)n3ccccc3nc2n1Cc1ccco1, which Potency is on record?
A: inactive

Q: Which Potency does the source give for Cc1ccc(NC(=O)CN(C)S(=O)(=O)c2ccc(Cl)s2)c(O)c1 here?
A: inconclusive: 23.1 µM [activator, partial curve]

Q: With O=C1CC(c2ccccc2)Oc2cc(O)cc(O)c21 (stereo unspecified) as the compound, how does the Potency read?
A: inconclusive: 23.1 µM [activator, single point]

Q: For c1coc(-c2nc(-c3ccco3)c(-c3ccco3)nc2-c2ccco2)c1, which Potency is on record?
A: inactive

Q: Which Potency does the source give for CC(C)N(C(=O)[C@H]1C[C@H](CC(=O)NCCCn2ccnc2)C(=O)N2CCc3c([nH]c4cc(CCC(=O)N(C)C)ccc34)[C@]12C)C(C)C here?
A: inactive

Q: Which Potency does the source give for COc1ccccc1N1CCN(CCCCOc2ccc(C)cc2C)CC1 here?
A: inactive

Q: With CN(C)c1ccc(/C=N/NC(N)=S)cc1[N+](=O)[O-] as the compound, how does the Potency read?
A: inactive

Q: Which Potency does the source give for COc1ccc(-n2c(C)nc3sc4c(c3c2=O)CCCC4)cc1 here?
A: inactive

Q: Which Potency does the source give for CSc1nsc(N/N=C/c2ccc3c(c2)OCO3)c1C#N here?
A: inconclusive: 2.06 µM [activator, full curve]

Q: Which Potency does the source give for O=C(Nc1ccc(Br)cc1)c1csc(-c2ccncc2)n1 here?
A: inconclusive: 20.6 µM [inhibitor, single point]

Q: Which Potency does the source give for COc1ccc(OC2CCN(S(=O)(=O)c3ccc(C(C)=O)cc3)CC2)cc1 here?
A: active: 20.6 µM

Q: Which Potency does the source give for Cc1cccc(N2CCN(C(=O)c3nn(C)c4c3CS(=O)(=O)c3ccccc3-4)CC2)c1C here?
A: inactive

Q: For COc1cc2c(cc1OC)C(C)N(C(=O)c1cc(Cl)nc(Cl)c1)CC2 (stereo unspecified), which Potency is on record?
A: inconclusive: 14.6 µM [inhibitor, partial curve]

Q: For O=C(Nc1nc2n(n1)C(c1ccccc1)C=C(c1ccccc1)N2)c1ccco1 (stereo unspecified), which Potency is on record?
A: inconclusive: 16.4 µM [inhibitor, partial curve]

Q: For CC(C)CCN(C(=O)c1ccc(N2CCCC2=O)cc1)c1c(N)n(Cc2ccccc2)c(=O)[nH]c1=O, which Potency is on record?
A: inconclusive: 4.61 µM [activator, partial curve]

Q: Which Potency does the source give for Cc1ccc(NC(=O)CN(C)C(=O)Cn2ccsc2=N)cc1 here?
A: inconclusive: 0.92 µM [activator, partial curve, poor fit]
